PubChem BioAssay AID1259308 – NCATS, 2017

- Assay: 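Candidate targets for better recombinant protein yield in mammalian cells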 (primary screen)
- Cell system: human HEK293 embryonic kidney cells stably expressing firefly luciferase (HEK-CMV-Luc2-Hygro)
- Reagents: single siRNA against human genes, 0.8 pmol siRNA per well
- Timing: 72 h
- Read-out: 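Luciferase light (ONE-Glo) measured on one replicate plate set and viability (CellTiter-Glo) on the other, scaled to a negative control siRNA, with robust z-scores and luciferase per cell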
- Scale: total luciferase, z-score: higher = more reporter protein produced
- Hit rule: 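An siRNA counts as active if its total luciferase robust z-score exceeds 3; genes with two or more such siRNAs out of three were retested with fresh siRNAs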
- Meaning of the calls: active = raised luciferase; inactive = no rise
The deposit covers about 59,000 reagents; below is a random part of them. About 1,510 of all reagents (2.6%) count as active. 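Calls use total luciferase alone and ignore viability, so some active siRNAs may act by altering cell number.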 Further read-outs or replicates are left out here.

total luciferase, z-score, by target gene and reagent
FAM3C (FAM3 metabolism regulating signaling molecule C): SID160728442 0.353 inactive; SID160728444 -1.05 inactive; SID160728445 -0.972 inactive
SHPK (sedoheptulokinase): SID160736816 0.781 inactive; SID160736817 -0.111 inactive; SID160736818 0.35 inactive
SELENOF (selenoprotein F): SID160722129 -0.523 inactive; SID160722130 -0.0153 inactive; SID160722131 1.93 inactive
FAM216A (family with sequence similarity 216 member A): SID160739261 1.22 inactive; SID160739262 -0.516 inactive; SID160739263 4.86 active
LIPG (lipase G, endothelial type): SID160722094 -1.26 inactive; SID160722095 4.32 active; SID160722096 -0.0677 inactive
ZCCHC4 (zinc finger CCHC-type containing 4): SID160738984 -0.584 inactive; SID160738985 -0.0221 inactive; SID160738986 -1.13 inactive
MRPS17 (mitochondrial ribosomal protein S17): SID160740703 -0.181 inactive; SID160740705 0.562 inactive; SID160740706 -1.66 inactive
ZNRF2 (zinc and ring finger 2): SID160761921 2.34 inactive; SID160761922 0.0525 inactive; SID160761923 0.499 inactive
ABCD1 (ATP binding cassette subfamily D member 1): SID160716203 0.387 inactive; SID160716220 1.15 inactive; SID160730779 0.00472 inactive
GDAP1L1: SID160734917 -0.526 inactive; SID160748448 -0.606 inactive; SID160748449 0.191 inactive
NEURL4 (neuralized E3 ubiquitin protein ligase 4): SID160752300 -0.391 inactive; SID160752302 -0.365 inactive; SID160752303 -1.32 inactive
NEK1 (NIMA related kinase 1): SID160731283 0.704 inactive; SID160777957 0.573 inactive; SID160777958 0.479 inactive
STH (saitohin): SID160724939 0.788 inactive; SID160732794 -1.42 inactive; SID160762023 0.295 inactive
ZBTB46 (zinc finger and BTB domain containing 46): SID160757826 0.968 inactive; SID160757827 2.79 inactive; SID160757828 0.568 inactive
FBXO16 (F-box protein 16): SID160759528 0.132 inactive; SID160759529 0.938 inactive; SID160759531 0.918 inactive
RUNX3 (RUNX family transcription factor 3): SID160737169 0.38 inactive; SID160737179 3.5 active; SID160737190 -2.58 inactive
PRKCB (protein kinase C beta): SID160714929 0.515 inactive; SID160714930 0.649 inactive; SID160714931 0.807 inactive
SLITRK5 (SLIT and NTRK like family member 5): SID160737536 -1.3 inactive; SID160737537 0.218 inactive; SID160737538 0.441 inactive
ARID3B (AT-rich interaction domain 3B): SID160728875 1.68 inactive; SID160728876 -0.222 inactive; SID160728877 1.89 inactive
ZNF221 (zinc finger protein 221): SID160719121 -0.518 inactive; SID160719122 0.0272 inactive; SID160731886 -0.319 inactive
XAGE5 (X antigen family member 5): SID160732630 0.736 inactive; SID160760440 2.24 inactive; SID160760441 1.34 inactive
UBE2D3 (ubiquitin conjugating enzyme E2 D3): SID160718527 2.5 inactive; SID160718528 0.341 inactive; SID160718529 0.284 inactive
CCN2 (cellular communication network factor 2): SID160750223 -0.382 inactive; SID160750234 -0.217 inactive; SID160750245 -0.0844 inactive
SEMA6A (semaphorin 6A): SID160746264 -1.6 inactive; SID160746265 0.536 inactive; SID160746266 -1.42 inactive
PLAAT2 (phospholipase A and acyltransferase 2): SID160733578 0.521 inactive; SID160742659 -0.44 inactive; SID160742661 -0.29 inactive

Records above marked active (3):
total luciferase, z-score, by target gene and reagent
FAM216A (family with sequence similarity 216 member A): SID160739263 4.86 active
LIPG (lipase G, endothelial type): SID160722095 4.32 active
RUNX3 (RUNX family transcription factor 3): SID160737179 3.5 active
